Measurements as given in article PMC3219729.

Molecular target: T1, splicing factor proline-glutamine rich (SFPQ/PSF) (human (endogenous in A549)) (UniProt P23246)
T1 sequence: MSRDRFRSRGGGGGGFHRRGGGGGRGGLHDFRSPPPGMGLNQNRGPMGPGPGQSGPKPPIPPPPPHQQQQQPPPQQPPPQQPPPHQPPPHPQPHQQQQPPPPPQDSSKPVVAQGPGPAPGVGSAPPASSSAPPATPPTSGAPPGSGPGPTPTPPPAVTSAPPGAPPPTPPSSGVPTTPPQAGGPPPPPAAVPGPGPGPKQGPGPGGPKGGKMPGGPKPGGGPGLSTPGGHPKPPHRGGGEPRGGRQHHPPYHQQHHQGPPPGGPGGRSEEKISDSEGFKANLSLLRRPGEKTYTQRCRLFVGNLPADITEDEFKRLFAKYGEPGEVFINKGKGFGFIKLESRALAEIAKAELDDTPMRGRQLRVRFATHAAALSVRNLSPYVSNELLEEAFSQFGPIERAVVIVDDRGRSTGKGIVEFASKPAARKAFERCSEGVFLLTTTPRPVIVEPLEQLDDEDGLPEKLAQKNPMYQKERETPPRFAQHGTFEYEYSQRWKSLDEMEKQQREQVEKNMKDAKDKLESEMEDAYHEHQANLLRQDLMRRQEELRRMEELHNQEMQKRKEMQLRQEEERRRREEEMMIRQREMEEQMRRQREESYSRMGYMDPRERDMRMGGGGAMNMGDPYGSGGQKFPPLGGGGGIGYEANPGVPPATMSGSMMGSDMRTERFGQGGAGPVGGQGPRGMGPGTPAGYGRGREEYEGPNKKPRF
Assay: co-IP

Substance: nucleoprotein (NP) of influenza virus A/Victoria/3/75 (H3N2)
- binding: binds

These are yes or no findings as the source states them, for the method shown. In cells and extracts the contact can be indirect. A result given as binding can be weak or reduced; the word gives no strength.
